Tested on: L. infantum promastigotes
Experiment: Toxicity towards L. infantum promastigotes
Format: cell-based, Leishmania infantum
Details: macrophage IC50 / L. infantum EC50
Description: The experimental procedures employed to assess the toxicity of acids 1 and 2 towards L. infantum and L. donovani are the same as the ones previously described. CPT was used as the control drug.

CCCCCCCCCC/C=C\CC/C=C\CCC(OC)C(=O)O (racemic) [compound 1, (5Z,9Z)-(±)-2-methoxy-5,9-eicosadienoic acid]
Therapeutic Index (IC50/EC50): 0.4

CCCCCCCCCCC#CCCC#CCCC(OC)C(=O)O (racemic) [compound 2, (±)-2-methoxy-5,9-eicosadiynoic acid]
Therapeutic Index (IC50/EC50): 0.4

From publication PMC3826128 (Marine Drugs, 2013)
